Source: patent US20030143656A1
Results are given in words; binding and its absence hold for the method and conditions named. Binding seen in cells or lysates may run through a third protein. Some binding calls cover weakened binding; strength is not graded here. Tags and fused reporters may be left off the sequences shown.

Protein sequences, listed by entry. Tags and fused reporters are not part of them. Lines headed by an entry give the natural chain unless they say otherwise; changes in a name come on top.
UniProt Q16513: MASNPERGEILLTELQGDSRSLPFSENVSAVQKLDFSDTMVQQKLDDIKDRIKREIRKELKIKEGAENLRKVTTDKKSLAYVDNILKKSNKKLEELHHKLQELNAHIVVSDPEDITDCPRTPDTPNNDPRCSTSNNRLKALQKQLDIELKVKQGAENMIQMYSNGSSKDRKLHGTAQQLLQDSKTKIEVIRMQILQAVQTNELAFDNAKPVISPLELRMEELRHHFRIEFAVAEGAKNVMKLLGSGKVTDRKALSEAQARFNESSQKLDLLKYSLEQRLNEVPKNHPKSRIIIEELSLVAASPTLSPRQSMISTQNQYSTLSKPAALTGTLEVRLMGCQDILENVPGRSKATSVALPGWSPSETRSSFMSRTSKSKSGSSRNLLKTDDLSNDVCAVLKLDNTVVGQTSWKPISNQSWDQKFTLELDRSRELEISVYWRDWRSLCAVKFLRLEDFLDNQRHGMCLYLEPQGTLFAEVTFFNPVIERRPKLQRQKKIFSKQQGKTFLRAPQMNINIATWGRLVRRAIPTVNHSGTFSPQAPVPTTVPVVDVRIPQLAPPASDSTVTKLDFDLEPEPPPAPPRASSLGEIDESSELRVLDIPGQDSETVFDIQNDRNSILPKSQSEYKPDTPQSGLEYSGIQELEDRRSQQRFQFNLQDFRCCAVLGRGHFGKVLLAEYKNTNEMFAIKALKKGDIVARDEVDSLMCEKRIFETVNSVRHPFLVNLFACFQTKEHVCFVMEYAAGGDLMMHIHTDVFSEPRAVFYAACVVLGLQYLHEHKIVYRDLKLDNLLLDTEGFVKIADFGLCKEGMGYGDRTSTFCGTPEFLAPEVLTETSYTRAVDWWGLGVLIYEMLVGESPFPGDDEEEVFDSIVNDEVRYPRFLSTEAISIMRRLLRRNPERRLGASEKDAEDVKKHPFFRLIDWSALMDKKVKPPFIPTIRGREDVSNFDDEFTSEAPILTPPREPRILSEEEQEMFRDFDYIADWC

Target: GST-PIF (human) (UniProt Q16513)
Assay: GST-PIF pull-down from co-transfected 293 cells, anti-Myc blot

B1: Myc-PDK1 (wild type) (enzyme, human, UniProt O15530 1-556, looked up, not shown: small tags and cut ends)
chain: MARTTSQLYDAVPIQSSVVLCSCPSPSMVRTQTESSTPPGIPGGSRQGPAMDGTAAEPRPGAGSLQHAQPPPQPRKKRPEDFKFGKILGEGSFSTVVLARELATSREYAIKILEKRHIIKENKVPYVTRERDVMSRLDHPFFVKLYFTFQDDEKLYFGLSYAKNGELLKYIRKIGSFDETCTRFYTAEIVSALEYLHGKGIIHRDLKPENILLNEDMHIQITDFGTAKVLSPESKQARANSFVGTAQYVSPELLTEKSACKSSDLWALGCIIYQLVAGLPPFRAGNEYLIFQKIIKLEYDFPEKFFPKARDLVEKLLVLDATKRLGCEEMEGYGPLKAHPFFESVTWENLHQQTPPKLTAYLPAMSEDDEDCYGNYDNLLSQFGCMQVSSSSSSHSLSASDTGLPQRSGSNIEQYIHDLDSNSFELDLQFSEDEKRLLLEKQAGGNPWHQFVENNLILKMGPVDKRKGLFARRRQLLLTEGPHLYYVDPVNKVLKGEIPWSQELRPEAKNFKTFFVHTPNRTYYLMDPSGNAHKWCRKIQEVWRQRYQSHPDAAVQ
- binding: binds
